{
  "source": "patent US6034058A",
  "about": "“Semi-synthetic alanyl dilemnin analogs” (priority 1998, dated 2000)",
  "tested_on": "L1210",
  "assay_type": "cell-based",
  "conditions": "L1210 cells, cytotoxicity; listed as Cbz-[Ala^9 ]DM",
  "note": "The name of at least one read-out is uncertain.",
  "data": [
    {"substance": "N-Benzyloxycarbonyl-L-pyroglutamyl-L-glutaminyl-L-[alaninyl^9 ] didemnin B [Cbz-pGlu-Gln-[Ala^9 ]DB]", "values": [
      {"measurement": "L1210, IC90", "value": 0.4, "unit": "mg/L"}
    ]}
  ]
}
